No constants are given. Whether binding was seen depends on the method and setting. In cells and extracts the contact can be indirect. Some results given as binding are weak or reduced against the parent protein; the word gives no strength.

Sequences of proteins named here, by UniProt entry; tags and fusion partners are left off. A change or cut given only in a name is not applied to a line headed by its entry. A line that says so, or that is headed by a name, gives the form on record, which may keep a tag or linker. Residues count along the entry.
UniProt Q8IW41: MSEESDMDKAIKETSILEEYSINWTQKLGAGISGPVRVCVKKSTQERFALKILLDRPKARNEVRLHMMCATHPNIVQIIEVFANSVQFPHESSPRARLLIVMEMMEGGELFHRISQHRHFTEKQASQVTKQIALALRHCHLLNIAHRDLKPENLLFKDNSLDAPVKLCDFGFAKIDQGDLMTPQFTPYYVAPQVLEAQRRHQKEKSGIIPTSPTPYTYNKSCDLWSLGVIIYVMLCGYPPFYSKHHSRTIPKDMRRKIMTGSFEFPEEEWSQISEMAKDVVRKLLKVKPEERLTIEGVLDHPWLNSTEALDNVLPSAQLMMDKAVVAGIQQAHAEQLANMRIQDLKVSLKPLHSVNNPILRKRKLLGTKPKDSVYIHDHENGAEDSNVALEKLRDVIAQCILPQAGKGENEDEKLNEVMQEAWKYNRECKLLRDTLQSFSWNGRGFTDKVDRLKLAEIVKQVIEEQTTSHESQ
UniProt Q9UKI8: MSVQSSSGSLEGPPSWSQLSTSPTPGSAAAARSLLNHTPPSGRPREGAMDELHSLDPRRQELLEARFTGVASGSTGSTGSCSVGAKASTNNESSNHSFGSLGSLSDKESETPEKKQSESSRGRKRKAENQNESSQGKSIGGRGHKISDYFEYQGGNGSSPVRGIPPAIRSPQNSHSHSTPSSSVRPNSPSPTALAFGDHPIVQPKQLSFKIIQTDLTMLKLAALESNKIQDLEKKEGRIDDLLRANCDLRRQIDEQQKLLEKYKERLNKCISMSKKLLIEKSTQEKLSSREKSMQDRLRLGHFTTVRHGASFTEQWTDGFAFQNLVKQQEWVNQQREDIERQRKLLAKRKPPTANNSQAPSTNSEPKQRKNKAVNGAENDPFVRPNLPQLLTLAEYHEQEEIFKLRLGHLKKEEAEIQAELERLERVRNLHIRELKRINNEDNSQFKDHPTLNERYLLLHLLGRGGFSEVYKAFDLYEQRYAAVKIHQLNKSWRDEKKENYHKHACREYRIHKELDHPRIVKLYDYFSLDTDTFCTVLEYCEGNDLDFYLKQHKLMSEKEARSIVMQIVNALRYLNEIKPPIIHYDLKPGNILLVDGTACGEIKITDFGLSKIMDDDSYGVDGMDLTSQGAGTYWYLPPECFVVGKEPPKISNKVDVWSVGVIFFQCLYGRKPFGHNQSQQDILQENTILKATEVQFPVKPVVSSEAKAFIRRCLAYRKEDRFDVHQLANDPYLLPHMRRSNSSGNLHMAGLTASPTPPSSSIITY
recombinant full‐length his‐tagged TLK1B: residues 218-766 of Q9UKI8

Assay [1] concerns the target eGFP‐MK5 (from pEGFP‐MK5‐C1), overexpressed in HEK 293 cells (UniProt Q8IW41). Briefly: co-IP; 200 µg lysate of HEK 293 cells overexpressing GFP-MK5; GFP-specific antibody 4 h on ice, protein A/G agarose overnight at 4 °C; blotted for MK5 and TLK1.
Assay [2] addresses recombinant full‐length his‐tagged TLK1B (human) (UniProt Q9UKI8). Briefly: pull-down; His pull-down: 20 µg purified His-tagged TLK1B added to 400 µg lysate (1X RIPA) of GFP-MK5-overexpressing HEK 293 cells, on ice 30 min, Ni2+-NTA agarose; western blot; only the target purified.
Assay [3] deals with purified recombinant GST‐tagged MK5 (Sino Biological, cat# 13655‐H20B) (human) (UniProt Q8IW41). Briefly: pull-down; GST pull-down: 20 µg purified GST-tagged MK5 added to 400 µg lysate (1X RIPA) of HEK 293 cells co-expressing GFP-MK5 and TLK1, on ice 30 min, glutathione agarose; western blot; only the target purified. Background: A western blot detects proteins with antibodies after separation by electrophoresis.

The target in assay [4] is tousled‐like kinase 1 (TLK1), endogenous in LNCaP cells (human (endogenous in LNCaP)) (UniProt Q9UKI8). In words: co-IP; 200 µg LNCaP cell lysate, endogenous proteins; TLK1-specific antibody 4 h on ice, protein A/G agarose overnight at 4 °C; blotted for TLK1 and MK5.

Turning to “MAP kinase‐activated protein kinase 5 (MK5), endogenous in HEK 293 cells (from UniProt Q8IW41 1-473)”, the binding result in assay [1], in assay [2] and in assay [3] was “binds” each time.

With “eGFP‐MK5 (from pEGFP‐MK5‐C1), overexpressed in HEK 293 cells (from UniProt Q8IW41 1-473)”, the binding entry in assay [2] and in assay [3] was “binds” throughout. In the case of “tousled‐like kinase 1 (TLK1), endogenous in HEK 293 cells (from UniProt Q9UKI8 1-766)”, in assay [1], the binding entry is listed as “binds”. For the substance “wild‐type human full‐length TLK1, overexpressed in HEK 293 cells (from UniProt Q9UKI8 1-766)”, in assay [3], the binding result is on record as “binds”. For the substance “MAP kinase‐activated protein kinase 5 (MK5), endogenous in LNCaP cells (from UniProt Q8IW41 1-473)”, the binding result in assay [4] is given as “binds”.
